The results in this text go back to ChEMBL document CHEMBL3596144, “New Indole Tubulin Assembly Inhibitors Cause Stable Arrest of Mitotic Progression, Enhanced Stimulation of Natural Killer Cell Cytotoxic Activity, and Repression of Hedgehog-Dependent Cancer” (J Med Chem, 2015).

Usually IC50 stands for the concentration that inhibits the measured activity by half.

Test [1] in a line: Cytotoxicity against human MESSA/DX5 cells assessed as growth inhibition after 72 hrs by CellTiter-Glo assay. The class given is functional, cell-based. Particulars: MES-SA/Dx5, 72 h. (In general: Cellular ATP, detected with luciferase, serves as a proxy for viable cell number.)
Test [2] is described as follows: Cytotoxicity against human MESSA cells assessed as growth inhibition after 72 hrs by CellTiter-Glo assay. It is filed as functional, cell-based. Particulars: MES-SA.

As to `COc1cc2c(c(OC)c1OC)-c1ccc(OC)c(=O)cc1[C@@H](NC(C)=O)CC2` [COLCHICINE], the results for the IC50 in test [1] and in test [2] were 329 nM and 11 nM, respectively.
